Measurements from article PMC8700061, “Fragment-Sized and Bidentate (Immuno)Proteasome Inhibitors Derived from Cysteine and Threonine Targeting Warheads” (Cells, 2021).
“Also recorded” adds a separate entry of the source.

What was measured:
[1] = UV-Vis-based reactivity assay with N-acetyl cysteine; type: physicochemical; settings: 50 µM compound, 0.5 mM N-acetyl cysteine; hyperreactive = reaction too fast to be monitored
[2] = HPLC-based GSH reactivity assay; type: physicochemical; settings: 250 µM compound, 5 mM GSH, PBS pH 7.4
Protocol: GSH reactivity assay was performed as described by Petri et al.; 500 μM solution of compound (PBS buffer pH 7.4, 10% MeCN, 250 μL) with 200 μM solution of indoprofen as internal standard were added to 10 mM GSH solution (dissolved in PBS buffer, 250 μL) in a 1:1 ratio. […] The final mixture was analyzed by HPLC after 0, 1, 2, 4, 8, 12, 24, 48, and 72 h. The degradation kinetics were also studied using the method described in [24], except that pure PBS buffer was used instead of GSH solution. […] The area under the curve (AUC) values were determined by integrating the HPLC spectra and then corrected with the internal standard.

| SMILES | Reactivity with N-acetyl cysteine (UV-Vis-based assay) [1] | Reactivity with GSH (HPLC-based assay), in words [2] |
| --- | --- | --- |
| COc1cccc2oc(C#N)nc12 [Compound 6] | hyperreactive | hyperreactive |
| COc1ccc2oc(C#N)nc2c1 [Compound 7] | hyperreactive | hyperreactive |
| COc1ccc2nc(C#N)oc2c1 [Compound 8] | hyperreactive |  |
| COc1cccc2nc(C#N)oc12 [Compound 9] | hyperreactive | hyperreactive |
| N#Cc1nc2c(O)cccc2o1 [Compound 10] | hyperreactive |  |
| N#Cc1nc2cc(O)ccc2o1 [Compound 11] | hyperreactive |  |
| N#Cc1nc2ccc(O)cc2o1 [Compound 12] | hyperreactive |  |
| N#Cc1nc2cccc(O)c2o1 [Compound 13] | hyperreactive |  |
| CC(=O)Oc1cccc2oc(C#N)nc12 [Compound 14] | hyperreactive |  |
| CC(=O)Oc1ccc2oc(C#N)nc2c1 [Compound 15] | hyperreactive |  |
| N#Cc1nc2c([N+](=O)[O-])cccc2o1 [Compound 16] | hyperreactive |  |
| N#Cc1nc2cccc([N+](=O)[O-])c2o1 [Compound 19] | hyperreactive |  |
| N#Cc1nc2c(N)cccc2o1 [Compound 20] | hyperreactive |  |
| N#Cc1nc2cc(N)ccc2o1 [Compound 21] | hyperreactive |  |
| N#Cc1nc2ccc(N)cc2o1 [Compound 22] | hyperreactive |  |
| N#Cc1nc2cccc(N)c2o1 [Compound 23] | hyperreactive |  |
| N#Cc1nc2c(NC(=O)c3ccccc3)cccc2o1 [Compound 24] | hyperreactive |  |
| N#Cc1nc2cc(NC(=O)c3ccccc3)ccc2o1 [Compound 25] | hyperreactive |  |
| N#Cc1nc2cccc(NC(=O)c3ccccc3)c2o1 [Compound 27] | hyperreactive |  |
| C=Cc1nc(CC(=O)N[C@@H](CC(C)C)B2O[C@@H]3C[C@@H]4C[C@@H](C4(C)C)[C@]3(C)O2)cs1 [Compound 28] |  | not reactive; also recorded: unreactive |
| CC(C)C[C@H](NC(=O)CCn1c(C#N)nc2ccccc21)B1O[C@@H]2C[C@@H]3C[C@@H](C3(C)C)[C@]2(C)O1 [Compound 30] | not reactive | not reactive |
| CC(C)C[C@H](NC(=O)CCCn1c(C#N)nc2ccccc21)B1O[C@@H]2C[C@@H]3C[C@@H](C3(C)C)[C@]2(C)O1 [Compound 31] | not reactive | not reactive |
| CC(C)C[C@H](NC(=O)CCCCn1c(C#N)nc2ccccc21)B1O[C@@H]2C[C@@H]3C[C@@H](C3(C)C)[C@]2(C)O1 [Compound 32] | not reactive | not reactive |
| CC(C)C[C@H](NC(=O)CCCn1c(C#N)nc2ccccc21)B(O)O [Compound 35] | not reactive |  |
| CC(C)C[C@H](NC(=O)CCCCn1c(C#N)nc2ccccc21)B(O)O [Compound 36] | not reactive |  |
| CC(C)C[C@H](NC(=O)CCn1c(C#N)nc2ccc(Cl)cc21)B1O[C@@H]2C[C@@H]3C[C@@H](C3(C)C)[C@]2(C)O1 [Compound 37] | not reactive | not reactive |
| CC(C)C[C@H](NC(=O)CCn1c(C#N)nc2cccc(Cl)c21)B1O[C@@H]2C[C@@H]3C[C@@H](C3(C)C)[C@]2(C)O1 [Compound 38] | not reactive | not reactive |
| CC(C)C[C@H](NC(=O)Cc1ccc2oc(C#N)nc2c1)B1O[C@@H]2C[C@@H]3C[C@@H](C3(C)C)[C@]2(C)O1 [Compound 39] | hyperreactive |  |
| CC(C)C[C@H](NC(=O)Cc1ccc2oc(C#N)nc2c1)B(O)O [Compound 40] | hyperreactive |  |
